{"source": "paper PMC10916992", "about": "“APOE Christchurch‐mimetic therapeutic antibody reduces APOE‐mediated toxicity and tau phosphorylation” (Alzheimer's & Dementia, 2023)", "biological_target": "Recombinant VLDLr (UniProt P98155)", "assay": "ELISA; 1 μg/mL recombinant VLDLr coated; serial dilutions of ApoE3 (Acros) alone or with 0.003 μg/μL 7C11 mAb in TBS with 2 mM CaCl2, 2 h RT; detected by anti-His-tag antibody; both purified", "note": "Results are given in words; binding and its absence hold for the method and conditions named. Some results given as binding are weak or reduced against the parent protein; the word gives no strength.", "data": [{"substance": "Mammalian-derived (HEK derived) ApoE3, ACROBiosystems (from UniProt P02649 19-317)", "values": [{"measurement": "binding", "result": "binds"}]}]}
